{"source": "PubChem BioAssay AID1224828 (NIAID, 2016)", "assay": "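Find genes required for NF-kappaB p65 moving into the nucleus after LPS in mouse macrophages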 (primary screen)", "cells": "mouse RAW264.7 G9 macrophage reporter cells (GFP-p65, Tnf promoter-mCherry)", "knock-down reagent": "siRNA pool against mouse genes, 100 nM", "timing": "2 days siRNA transfection, then 40 min LPS before fixation", "treatment": "LPS (Salmonella minnesota R595) at 10 ng/ml", "read-out": "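Microscopy ratio of nuclear to perinuclear-ring GFP-p65 signal, scaled to the plate median; gene score is the average of two replicate robust z-scores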", "scale": "p65 translocation robust z-score: higher = more nuclear NF-kappaB p65 after LPS than the plate median; nuclear/cytoplasmic p65 ratio: higher = more nuclear NF-kappaB p65", "active means": "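Called active when z exceeds 3.3 or falls under -1.56 (median of Tlr4 controls), giving activity score of at least 50; no calls for control wells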", "calls": "active = hit (p65 shift raised or lowered); inactive = no clear change", "note": "This is a random part of about 17,000 reagents. In the full data, 762 (4.5%) got an active call. 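Active calls include both raised and lowered p65 entry, mostly lowered; wells with fewer than 50 cells lack a z-score.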 Raw values vary from plate to plate and are shown uncorrected. A reagent listed more than once was tested more than once; the source does not tell the runs apart. No sequences are given here."}
{"gene": "Ptma (prothymosin alpha)", "p65 translocation robust z-score": -0.72, "nuclear/cytoplasmic p65 ratio, rep 1": 1.37, "nuclear/cytoplasmic p65 ratio, rep 2": 1.34, "low cell count flag": "enough cells to score", "Call": "inactive"}
{"gene": "Vmn2r-ps105 (vomeronasal 2, receptor, pseudogene 105)", "p65 translocation robust z-score": -1.94, "nuclear/cytoplasmic p65 ratio, rep 1": 1.27, "nuclear/cytoplasmic p65 ratio, rep 2": 1.26, "low cell count flag": "enough cells to score", "Call": "active"}
{"gene": "Uxt (ubiquitously expressed prefoldin like chaperone)", "p65 translocation robust z-score": -0.2, "nuclear/cytoplasmic p65 ratio, rep 1": 1.37, "nuclear/cytoplasmic p65 ratio, rep 2": 1.2, "low cell count flag": "enough cells to score", "Call": "inactive"}
{"gene": "Mta2 (metastasis-associated gene family, member 2)", "p65 translocation robust z-score": -0.44, "nuclear/cytoplasmic p65 ratio, rep 1": 1.32, "nuclear/cytoplasmic p65 ratio, rep 2": 1.35, "low cell count flag": "enough cells to score", "Call": "inactive"}
{"gene": "Socs6 (suppressor of cytokine signaling 6)", "p65 translocation robust z-score": 0.13, "nuclear/cytoplasmic p65 ratio, rep 1": 1.38, "nuclear/cytoplasmic p65 ratio, rep 2": 1.3, "low cell count flag": "enough cells to score", "Call": "inactive"}
{"gene": "Vamp3 (vesicle-associated membrane protein 3)", "p65 translocation robust z-score": -1.03, "nuclear/cytoplasmic p65 ratio, rep 1": 1.19, "nuclear/cytoplasmic p65 ratio, rep 2": 1.17, "low cell count flag": "enough cells to score", "Call": "inactive"}
{"gene": "Fitm2 (fat storage-inducing transmembrane protein 2)", "p65 translocation robust z-score": 0.01, "nuclear/cytoplasmic p65 ratio, rep 1": 1.59, "nuclear/cytoplasmic p65 ratio, rep 2": 1.53, "low cell count flag": "enough cells to score", "Call": "inactive"}
{"gene": "Obi1 (ORC ubiquitin ligase 1)", "p65 translocation robust z-score": 0.47, "nuclear/cytoplasmic p65 ratio, rep 1": 1.31, "nuclear/cytoplasmic p65 ratio, rep 2": 1.52, "low cell count flag": "enough cells to score", "Call": "inactive"}
{"gene": "Atp2b2 (ATPase, Ca++ transporting, plasma membrane 2)", "p65 translocation robust z-score": -1.21, "nuclear/cytoplasmic p65 ratio, rep 1": 1.31, "nuclear/cytoplasmic p65 ratio, rep 2": 1.45, "low cell count flag": "enough cells to score", "Call": "inactive"}
{"gene": "Myo9b (myosin IXb)", "p65 translocation robust z-score": 0.51, "nuclear/cytoplasmic p65 ratio, rep 1": 1.56, "nuclear/cytoplasmic p65 ratio, rep 2": 1.36, "low cell count flag": "enough cells to score", "Call": "inactive"}
{"gene": "Stk26 (serine/threonine kinase 26)", "p65 translocation robust z-score": 1.13, "nuclear/cytoplasmic p65 ratio, rep 1": 1.82, "nuclear/cytoplasmic p65 ratio, rep 2": 1.57, "low cell count flag": "enough cells to score", "Call": "inactive"}
{"gene": "Stk26 (serine/threonine kinase 26)", "p65 translocation robust z-score": 0.79, "nuclear/cytoplasmic p65 ratio, rep 1": 1.54, "nuclear/cytoplasmic p65 ratio, rep 2": 1.57, "low cell count flag": "enough cells to score", "Call": "inactive"}
{"gene": "Scin (scinderin)", "p65 translocation robust z-score": -0.8, "nuclear/cytoplasmic p65 ratio, rep 1": 1.36, "nuclear/cytoplasmic p65 ratio, rep 2": 1.09, "low cell count flag": "enough cells to score", "Call": "inactive"}
{"gene": "Or1n2 (olfactory receptor family 1 subfamily N member 2)", "p65 translocation robust z-score": 0.26, "nuclear/cytoplasmic p65 ratio, rep 1": 1.64, "nuclear/cytoplasmic p65 ratio, rep 2": 1.53, "low cell count flag": "enough cells to score", "Call": "inactive"}
{"gene": "Gatd3a (glutamine amidotransferase like class 1 domain containing 3A)", "p65 translocation robust z-score": 0.45, "nuclear/cytoplasmic p65 ratio, rep 1": 1.59, "nuclear/cytoplasmic p65 ratio, rep 2": 1.92, "low cell count flag": "enough cells to score", "Call": "inactive"}
{"gene": "Cry1 (cryptochrome circadian regulator 1)", "p65 translocation robust z-score": 0.21, "nuclear/cytoplasmic p65 ratio, rep 1": 1.52, "nuclear/cytoplasmic p65 ratio, rep 2": 1.63, "low cell count flag": "enough cells to score", "Call": "inactive"}
{"gene": "Higd2a (HIG1 domain family, member 2A)", "p65 translocation robust z-score": -0.17, "nuclear/cytoplasmic p65 ratio, rep 1": 1.34, "nuclear/cytoplasmic p65 ratio, rep 2": 1.36, "low cell count flag": "enough cells to score", "Call": "inactive"}
{"gene": "Tmem17 (transmembrane protein 17)", "p65 translocation robust z-score": -1.1, "nuclear/cytoplasmic p65 ratio, rep 1": 1.22, "nuclear/cytoplasmic p65 ratio, rep 2": 1.18, "low cell count flag": "enough cells to score", "Call": "inactive"}
{"gene": "Mchr1 (melanin-concentrating hormone receptor 1)", "p65 translocation robust z-score": -0.96, "nuclear/cytoplasmic p65 ratio, rep 1": 1.34, "nuclear/cytoplasmic p65 ratio, rep 2": 1.48, "low cell count flag": "enough cells to score", "Call": "inactive"}
{"gene": "Ang3 (angiogenin, ribonuclease A family, member 3)", "p65 translocation robust z-score": 0.43, "nuclear/cytoplasmic p65 ratio, rep 1": 1.72, "nuclear/cytoplasmic p65 ratio, rep 2": 1.65, "low cell count flag": "enough cells to score", "Call": "inactive"}
{"gene": "Or5p4 (olfactory receptor family 5 subfamily P member 4)", "nuclear/cytoplasmic p65 ratio, rep 1": 1.42, "nuclear/cytoplasmic p65 ratio, rep 2": 1.39, "low cell count flag": "fewer than 50 cells per well; well left out of scoring", "Call": "inactive"}
{"gene": "Ren1 (renin 1 structural)", "p65 translocation robust z-score": -0.53, "nuclear/cytoplasmic p65 ratio, rep 1": 1.46, "nuclear/cytoplasmic p65 ratio, rep 2": 1.43, "low cell count flag": "enough cells to score", "Call": "inactive"}
{"gene": "Or5ac20 (olfactory receptor family 5 subfamily AC member 20)", "p65 translocation robust z-score": 0.6, "nuclear/cytoplasmic p65 ratio, rep 1": 1.68, "nuclear/cytoplasmic p65 ratio, rep 2": 1.52, "low cell count flag": "enough cells to score", "Call": "inactive"}
{"gene": "Tnfrsf1b (tumor necrosis factor receptor superfamily, member 1b)", "p65 translocation robust z-score": -0.79, "nuclear/cytoplasmic p65 ratio, rep 1": 1.4, "nuclear/cytoplasmic p65 ratio, rep 2": 1.31, "low cell count flag": "enough cells to score", "Call": "inactive"}
{"gene": "Clptm1 (cleft lip and palate associated transmembrane protein 1)", "p65 translocation robust z-score": 0.86, "nuclear/cytoplasmic p65 ratio, rep 1": 1.74, "nuclear/cytoplasmic p65 ratio, rep 2": 1.91, "low cell count flag": "enough cells to score", "Call": "inactive"}
{"gene": "Stxbp6 (syntaxin binding protein 6 (amisyn))", "p65 translocation robust z-score": -0.15, "nuclear/cytoplasmic p65 ratio, rep 1": 1.32, "nuclear/cytoplasmic p65 ratio, rep 2": 1.21, "low cell count flag": "enough cells to score", "Call": "inactive"}
{"gene": "Nxph4 (neurexophilin 4)", "p65 translocation robust z-score": -0.73, "nuclear/cytoplasmic p65 ratio, rep 1": 1.61, "nuclear/cytoplasmic p65 ratio, rep 2": 1.58, "low cell count flag": "enough cells to score", "Call": "inactive"}

4 neighbouring records from above, quoted:
{"gene": "Uxt (ubiquitously expressed prefoldin like chaperone)", "p65 translocation robust z-score": -0.2, "nuclear/cytoplasmic p65 ratio, rep 1": 1.37, "nuclear/cytoplasmic p65 ratio, rep 2": 1.2, "low cell count flag": "enough cells to score", "Call": "inactive"}
{"gene": "Mta2 (metastasis-associated gene family, member 2)", "p65 translocation robust z-score": -0.44, "nuclear/cytoplasmic p65 ratio, rep 1": 1.32, "nuclear/cytoplasmic p65 ratio, rep 2": 1.35, "low cell count flag": "enough cells to score", "Call": "inactive"}
{"gene": "Socs6 (suppressor of cytokine signaling 6)", "p65 translocation robust z-score": 0.13, "nuclear/cytoplasmic p65 ratio, rep 1": 1.38, "nuclear/cytoplasmic p65 ratio, rep 2": 1.3, "low cell count flag": "enough cells to score", "Call": "inactive"}
{"gene": "Vamp3 (vesicle-associated membrane protein 3)", "p65 translocation robust z-score": -1.03, "nuclear/cytoplasmic p65 ratio, rep 1": 1.19, "nuclear/cytoplasmic p65 ratio, rep 2": 1.17, "low cell count flag": "enough cells to score", "Call": "inactive"}
